In publication PMC11283213:
Results are given in words; binding and its absence hold for the method and conditions named. In cells and extracts the contact can be indirect. Some binding calls cover weakened binding; strength is not graded here. For some assays here: Where a sequence is shown, tags or fusion partners need not be part of it.

Protein sequences, listed by entry. Tags and fused reporters are not part of them.
UniProt P78527: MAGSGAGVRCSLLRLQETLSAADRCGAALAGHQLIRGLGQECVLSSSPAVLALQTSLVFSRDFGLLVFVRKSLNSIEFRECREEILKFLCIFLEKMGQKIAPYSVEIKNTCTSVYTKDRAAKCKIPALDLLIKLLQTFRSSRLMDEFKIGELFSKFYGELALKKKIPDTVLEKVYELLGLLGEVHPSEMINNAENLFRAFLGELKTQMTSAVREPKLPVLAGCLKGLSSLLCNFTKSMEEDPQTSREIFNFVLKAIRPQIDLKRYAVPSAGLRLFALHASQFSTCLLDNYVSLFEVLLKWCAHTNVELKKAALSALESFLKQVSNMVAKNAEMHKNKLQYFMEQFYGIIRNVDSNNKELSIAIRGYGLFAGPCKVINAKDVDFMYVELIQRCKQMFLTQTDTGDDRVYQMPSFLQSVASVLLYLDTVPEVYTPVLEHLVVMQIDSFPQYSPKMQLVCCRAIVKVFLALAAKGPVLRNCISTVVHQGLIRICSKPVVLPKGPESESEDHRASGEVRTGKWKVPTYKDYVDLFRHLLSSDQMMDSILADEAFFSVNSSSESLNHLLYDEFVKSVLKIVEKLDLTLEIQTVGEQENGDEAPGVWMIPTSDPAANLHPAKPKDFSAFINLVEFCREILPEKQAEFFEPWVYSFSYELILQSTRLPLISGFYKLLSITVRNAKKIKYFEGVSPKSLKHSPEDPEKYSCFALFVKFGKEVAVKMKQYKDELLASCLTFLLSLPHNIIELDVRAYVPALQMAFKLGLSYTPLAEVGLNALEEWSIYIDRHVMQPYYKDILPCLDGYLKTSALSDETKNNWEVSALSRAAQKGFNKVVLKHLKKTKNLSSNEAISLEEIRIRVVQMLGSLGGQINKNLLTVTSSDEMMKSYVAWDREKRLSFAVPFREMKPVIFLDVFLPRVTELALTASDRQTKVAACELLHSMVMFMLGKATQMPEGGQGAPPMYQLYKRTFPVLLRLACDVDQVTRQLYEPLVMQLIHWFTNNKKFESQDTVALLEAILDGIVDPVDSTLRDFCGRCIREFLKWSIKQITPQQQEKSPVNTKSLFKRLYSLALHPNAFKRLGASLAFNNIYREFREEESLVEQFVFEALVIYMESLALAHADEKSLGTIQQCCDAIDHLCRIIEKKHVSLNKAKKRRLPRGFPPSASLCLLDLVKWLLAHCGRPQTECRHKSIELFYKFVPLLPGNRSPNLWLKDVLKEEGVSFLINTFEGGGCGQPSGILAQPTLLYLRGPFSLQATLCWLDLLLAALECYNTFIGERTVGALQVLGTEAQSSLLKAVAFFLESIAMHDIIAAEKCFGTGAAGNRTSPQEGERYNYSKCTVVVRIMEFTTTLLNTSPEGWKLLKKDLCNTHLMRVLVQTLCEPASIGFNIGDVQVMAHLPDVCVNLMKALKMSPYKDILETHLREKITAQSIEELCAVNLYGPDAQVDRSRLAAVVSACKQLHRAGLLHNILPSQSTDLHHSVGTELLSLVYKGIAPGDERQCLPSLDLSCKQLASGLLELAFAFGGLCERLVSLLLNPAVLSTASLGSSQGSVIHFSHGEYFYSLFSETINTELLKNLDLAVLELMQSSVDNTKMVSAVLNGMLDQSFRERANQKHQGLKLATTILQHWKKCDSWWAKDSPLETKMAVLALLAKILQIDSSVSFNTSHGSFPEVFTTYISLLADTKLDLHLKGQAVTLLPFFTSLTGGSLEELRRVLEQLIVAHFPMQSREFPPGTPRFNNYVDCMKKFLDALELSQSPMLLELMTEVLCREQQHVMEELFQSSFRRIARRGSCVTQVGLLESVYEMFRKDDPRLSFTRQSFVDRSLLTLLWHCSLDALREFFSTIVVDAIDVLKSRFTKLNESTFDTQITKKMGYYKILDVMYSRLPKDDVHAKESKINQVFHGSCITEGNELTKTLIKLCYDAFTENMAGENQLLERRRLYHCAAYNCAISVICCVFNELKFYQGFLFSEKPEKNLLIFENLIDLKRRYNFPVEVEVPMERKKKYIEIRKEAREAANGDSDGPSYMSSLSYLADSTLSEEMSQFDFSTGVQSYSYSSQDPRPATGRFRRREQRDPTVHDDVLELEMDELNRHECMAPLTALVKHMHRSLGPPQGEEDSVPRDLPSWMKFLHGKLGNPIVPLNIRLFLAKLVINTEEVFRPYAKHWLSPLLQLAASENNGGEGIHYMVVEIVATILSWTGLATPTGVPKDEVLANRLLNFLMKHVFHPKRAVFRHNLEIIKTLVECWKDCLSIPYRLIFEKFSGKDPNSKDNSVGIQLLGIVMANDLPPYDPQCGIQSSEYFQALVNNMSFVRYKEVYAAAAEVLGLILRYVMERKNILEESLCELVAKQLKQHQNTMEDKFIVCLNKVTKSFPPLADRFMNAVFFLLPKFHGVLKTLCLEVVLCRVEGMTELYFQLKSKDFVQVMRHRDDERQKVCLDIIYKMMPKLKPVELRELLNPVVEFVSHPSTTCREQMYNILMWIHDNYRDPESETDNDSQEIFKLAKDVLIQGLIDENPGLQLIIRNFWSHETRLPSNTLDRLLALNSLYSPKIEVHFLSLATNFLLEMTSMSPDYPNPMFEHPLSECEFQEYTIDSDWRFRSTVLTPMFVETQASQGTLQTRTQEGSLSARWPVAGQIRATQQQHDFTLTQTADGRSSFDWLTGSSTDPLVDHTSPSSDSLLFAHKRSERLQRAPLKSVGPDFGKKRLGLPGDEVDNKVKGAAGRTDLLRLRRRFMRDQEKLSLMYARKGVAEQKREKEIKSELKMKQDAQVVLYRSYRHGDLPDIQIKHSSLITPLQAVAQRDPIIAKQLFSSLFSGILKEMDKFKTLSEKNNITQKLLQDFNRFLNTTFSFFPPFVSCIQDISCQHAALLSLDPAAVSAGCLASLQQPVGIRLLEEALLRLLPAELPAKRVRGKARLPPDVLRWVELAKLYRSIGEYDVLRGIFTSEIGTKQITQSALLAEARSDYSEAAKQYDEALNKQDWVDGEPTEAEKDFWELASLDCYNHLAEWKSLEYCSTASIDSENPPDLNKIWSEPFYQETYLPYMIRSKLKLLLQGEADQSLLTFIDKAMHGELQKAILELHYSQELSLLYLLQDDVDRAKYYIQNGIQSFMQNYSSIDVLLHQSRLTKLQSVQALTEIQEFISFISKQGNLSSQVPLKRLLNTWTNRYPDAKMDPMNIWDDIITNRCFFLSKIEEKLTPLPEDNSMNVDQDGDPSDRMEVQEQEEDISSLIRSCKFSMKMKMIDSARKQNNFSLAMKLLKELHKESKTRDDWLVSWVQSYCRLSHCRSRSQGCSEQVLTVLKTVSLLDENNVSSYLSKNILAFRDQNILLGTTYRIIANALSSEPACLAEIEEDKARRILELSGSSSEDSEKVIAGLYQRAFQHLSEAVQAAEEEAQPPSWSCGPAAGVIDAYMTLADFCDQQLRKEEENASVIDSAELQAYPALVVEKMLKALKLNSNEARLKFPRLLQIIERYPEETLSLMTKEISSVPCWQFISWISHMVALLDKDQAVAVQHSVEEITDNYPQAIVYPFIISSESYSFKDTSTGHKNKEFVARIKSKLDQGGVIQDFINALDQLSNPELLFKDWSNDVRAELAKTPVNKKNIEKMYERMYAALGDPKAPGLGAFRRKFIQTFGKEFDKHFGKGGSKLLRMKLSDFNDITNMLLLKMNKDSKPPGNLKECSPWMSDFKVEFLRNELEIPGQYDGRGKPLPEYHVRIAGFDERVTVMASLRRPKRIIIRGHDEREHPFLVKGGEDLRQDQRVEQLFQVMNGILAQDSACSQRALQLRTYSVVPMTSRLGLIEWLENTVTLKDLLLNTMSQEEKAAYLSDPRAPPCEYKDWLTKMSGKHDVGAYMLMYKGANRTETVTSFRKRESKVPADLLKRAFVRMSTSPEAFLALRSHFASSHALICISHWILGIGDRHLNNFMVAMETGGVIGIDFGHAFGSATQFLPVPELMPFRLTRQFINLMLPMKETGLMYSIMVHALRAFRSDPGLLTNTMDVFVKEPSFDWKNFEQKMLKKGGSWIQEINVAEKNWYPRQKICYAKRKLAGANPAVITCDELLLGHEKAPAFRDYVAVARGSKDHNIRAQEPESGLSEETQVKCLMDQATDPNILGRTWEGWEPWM
UniProt P13010: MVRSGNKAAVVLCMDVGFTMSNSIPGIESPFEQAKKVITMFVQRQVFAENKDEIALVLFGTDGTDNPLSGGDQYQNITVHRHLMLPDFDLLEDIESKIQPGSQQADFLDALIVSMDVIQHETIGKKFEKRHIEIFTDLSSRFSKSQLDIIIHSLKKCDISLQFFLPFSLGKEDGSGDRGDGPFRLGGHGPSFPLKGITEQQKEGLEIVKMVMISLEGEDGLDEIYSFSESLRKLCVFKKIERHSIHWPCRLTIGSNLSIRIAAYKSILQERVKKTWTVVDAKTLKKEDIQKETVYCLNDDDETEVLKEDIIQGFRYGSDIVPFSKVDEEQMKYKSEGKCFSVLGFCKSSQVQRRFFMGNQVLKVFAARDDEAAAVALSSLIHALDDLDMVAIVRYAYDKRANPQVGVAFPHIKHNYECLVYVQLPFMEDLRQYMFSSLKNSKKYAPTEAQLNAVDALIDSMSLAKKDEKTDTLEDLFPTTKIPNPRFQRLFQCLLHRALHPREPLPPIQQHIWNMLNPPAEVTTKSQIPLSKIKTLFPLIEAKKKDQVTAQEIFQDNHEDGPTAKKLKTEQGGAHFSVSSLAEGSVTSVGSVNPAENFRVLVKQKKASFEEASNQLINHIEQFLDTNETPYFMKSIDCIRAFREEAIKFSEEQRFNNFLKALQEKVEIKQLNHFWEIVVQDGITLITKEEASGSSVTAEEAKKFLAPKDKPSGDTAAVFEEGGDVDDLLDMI

Columns and labels:
[1] = biological target: DNA-PKcs (human (endogenous in HeLa)) (UniProt P78527); assay: co-IP; HeLa cell lysates immunoprecipitated with anti-DNA-PKcs, anti-PDLIM1 antibodies or mouse IgG; immunoblot for PDLIM1 and DNA-PKcs; endogenous proteins
[2] = biological target: Ku80 (construct of the GST pull-down) (UniProt P13010); assay: pull-down; GST pull-down assay; which partner carried GST is not told in the text shown

Binder | binding [1] | binding [2]
PDZ and LIM domain protein 1 (PDLIM1) (protein, UniProt O00151 1-329) MTTQQIDLQGPGPWGFRLVGGKDFEQPLAISRVTPGSKAALANLCIGDVITAIDGENTSNMTHLEAQNRIKGCTDNLTLTVARSEHKVWSPLVTEEGKRHPYKMNLASEPQEVLHIGSAHNRSAMPFTASPASSTTARVITNQYNNPAGLYSSENISNFNNALESKTAASGVEANSRPLDHAQPPSSLVIDKESEVYKMLQEKQELNEPPKQSTSFLVLQEILESEEKGDPNKPSGFRSVKAPVTKVAASIGNAQKLPMCDKCGTGIVGVFVKLRDRHRHPECYVCTDCGTNLKQKGHFFVEDQIYCEKHARERVTPPEGYEVVTVFPK | binds | 
PDLIM1 (construct of the GST pull-down) (protein, UniProt O00151 1-329) MTTQQIDLQGPGPWGFRLVGGKDFEQPLAISRVTPGSKAALANLCIGDVITAIDGENTSNMTHLEAQNRIKGCTDNLTLTVARSEHKVWSPLVTEEGKRHPYKMNLASEPQEVLHIGSAHNRSAMPFTASPASSTTARVITNQYNNPAGLYSSENISNFNNALESKTAASGVEANSRPLDHAQPPSSLVIDKESEVYKMLQEKQELNEPPKQSTSFLVLQEILESEEKGDPNKPSGFRSVKAPVTKVAASIGNAQKLPMCDKCGTGIVGVFVKLRDRHRHPECYVCTDCGTNLKQKGHFFVEDQIYCEKHARERVTPPEGYEVVTVFPK |  | binds
